# Publication PMC8118655
# Results are given in words; binding and its absence hold for the method and conditions named. In cells and extracts the contact can be indirect. Some binding calls cover weakened binding; strength is not graded here.
# Molecular target: T1, ubiquitin domain-containing protein 1 (UBTD1) (human (endogenous in DU145)) (UniProt Q9HAC8)
# T1 sequence: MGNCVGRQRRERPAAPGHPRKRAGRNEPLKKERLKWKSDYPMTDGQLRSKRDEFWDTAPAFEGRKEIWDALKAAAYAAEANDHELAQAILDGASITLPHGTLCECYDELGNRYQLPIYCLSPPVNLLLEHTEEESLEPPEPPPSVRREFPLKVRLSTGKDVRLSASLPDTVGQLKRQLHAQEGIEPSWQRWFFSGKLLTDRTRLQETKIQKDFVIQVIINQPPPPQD
# Experiment: co-IP; endogenous proteins, DU145 lysate in NP-40 buffer; UBTD1 as bait, Dynabeads protein A, 4°C; western blot; IgG isotype as negative control
substance,measurement,value
Sequestosome 1 (SQSTM1/p62) (from UniProt Q13501 1-440),binding,binds
